Experimental data: article PMC4099368
Positions count from the first letter of the chain named. No constants are given. Whether binding was seen depends on the method and setting. Binding seen in cells or lysates may run through a third protein. Some results given as binding are weak or reduced against the parent protein; the word gives no strength. Sequences can lack the tags named with a protein.

Protein sequences, listed by entry. Tags and fused reporters are not part of them. Residues count along the entry.
UniProt P43694, residues 200-254: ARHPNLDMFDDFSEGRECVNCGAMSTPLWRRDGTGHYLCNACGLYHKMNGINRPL

Assays:
[1] = biological target: T1, GST-ZFPM2/FOG2 p.E30G (human) (UniProt Q8WW38); experiment: pull-down; GST-ZFPM2/FOG2 (wild type or mutant) bound to 200 µl glutathione resin (Pierce GST Protein Interaction Pull-Down kit), incubated with GATA4 fragment at 4°C; washed with 25 mM Tris-HCl pH 7.2, 150 mM NaCl; eluate on SDS-PAGE, Coomassie staining
T1 sequence: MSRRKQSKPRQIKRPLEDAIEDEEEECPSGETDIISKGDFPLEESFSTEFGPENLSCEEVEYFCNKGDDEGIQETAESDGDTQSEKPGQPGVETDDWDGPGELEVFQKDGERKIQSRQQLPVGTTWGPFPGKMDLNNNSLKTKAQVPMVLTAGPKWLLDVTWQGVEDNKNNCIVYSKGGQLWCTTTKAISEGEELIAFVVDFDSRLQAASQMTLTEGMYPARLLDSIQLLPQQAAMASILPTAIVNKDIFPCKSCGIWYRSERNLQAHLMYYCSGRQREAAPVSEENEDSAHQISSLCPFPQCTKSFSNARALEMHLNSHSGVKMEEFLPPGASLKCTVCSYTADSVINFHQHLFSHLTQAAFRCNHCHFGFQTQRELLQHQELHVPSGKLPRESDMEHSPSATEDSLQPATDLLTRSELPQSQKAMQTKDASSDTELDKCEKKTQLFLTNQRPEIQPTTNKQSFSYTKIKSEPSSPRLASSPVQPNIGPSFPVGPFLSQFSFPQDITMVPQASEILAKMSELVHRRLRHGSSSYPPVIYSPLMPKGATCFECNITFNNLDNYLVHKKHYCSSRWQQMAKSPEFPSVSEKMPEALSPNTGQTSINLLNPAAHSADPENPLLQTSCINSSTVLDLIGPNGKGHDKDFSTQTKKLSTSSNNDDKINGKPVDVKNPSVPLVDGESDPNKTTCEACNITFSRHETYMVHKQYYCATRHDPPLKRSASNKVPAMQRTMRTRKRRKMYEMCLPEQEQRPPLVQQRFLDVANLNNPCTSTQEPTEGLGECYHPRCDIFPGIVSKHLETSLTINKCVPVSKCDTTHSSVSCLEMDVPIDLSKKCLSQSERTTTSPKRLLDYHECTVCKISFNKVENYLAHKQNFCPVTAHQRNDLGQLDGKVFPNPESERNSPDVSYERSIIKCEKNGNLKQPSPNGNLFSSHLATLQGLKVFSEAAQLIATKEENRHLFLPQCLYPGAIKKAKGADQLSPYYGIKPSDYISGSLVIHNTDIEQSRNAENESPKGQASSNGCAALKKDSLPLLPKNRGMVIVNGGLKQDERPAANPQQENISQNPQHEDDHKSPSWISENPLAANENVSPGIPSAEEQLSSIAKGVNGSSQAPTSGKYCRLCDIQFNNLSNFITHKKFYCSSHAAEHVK

[2] = biological target: T2, GST-ZFPM2/FOG2 p.M544I (human) (UniProt Q8WW38); experiment: as above
T2 sequence: T1 sequence with G30E, M544I

binding [1]: binds
binding [2]: binds
Substance: N-terminal zinc-finger sequence of GATA4 (residues 200-254) (from UniProt P43694 200-254) (domain or fragment)
